{
  "sequences": {"note": "The chains behind the UniProt entries cited, without tags or fusion partners. Residues count along the entry.", "UniProt P35222": "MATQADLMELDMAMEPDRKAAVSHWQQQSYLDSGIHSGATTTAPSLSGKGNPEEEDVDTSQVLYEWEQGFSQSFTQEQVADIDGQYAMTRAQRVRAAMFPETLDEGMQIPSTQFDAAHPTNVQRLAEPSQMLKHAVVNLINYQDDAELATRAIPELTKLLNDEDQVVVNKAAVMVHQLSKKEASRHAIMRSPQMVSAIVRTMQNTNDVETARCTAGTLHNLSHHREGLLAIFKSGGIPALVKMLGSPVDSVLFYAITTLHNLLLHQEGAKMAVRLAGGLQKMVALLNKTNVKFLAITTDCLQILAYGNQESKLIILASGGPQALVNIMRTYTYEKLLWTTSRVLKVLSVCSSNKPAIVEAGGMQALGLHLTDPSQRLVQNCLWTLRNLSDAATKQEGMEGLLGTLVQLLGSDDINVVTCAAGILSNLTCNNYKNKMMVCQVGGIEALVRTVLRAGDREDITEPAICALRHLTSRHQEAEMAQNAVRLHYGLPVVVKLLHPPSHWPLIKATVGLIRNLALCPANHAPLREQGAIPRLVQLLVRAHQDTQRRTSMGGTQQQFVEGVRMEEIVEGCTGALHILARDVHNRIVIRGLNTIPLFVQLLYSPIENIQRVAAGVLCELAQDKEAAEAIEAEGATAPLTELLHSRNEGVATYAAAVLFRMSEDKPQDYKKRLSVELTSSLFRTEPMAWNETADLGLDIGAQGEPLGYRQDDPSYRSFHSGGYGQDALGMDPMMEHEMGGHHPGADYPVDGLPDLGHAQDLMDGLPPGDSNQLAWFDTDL", "UniProt Q9Y5G4, residues 29-932": "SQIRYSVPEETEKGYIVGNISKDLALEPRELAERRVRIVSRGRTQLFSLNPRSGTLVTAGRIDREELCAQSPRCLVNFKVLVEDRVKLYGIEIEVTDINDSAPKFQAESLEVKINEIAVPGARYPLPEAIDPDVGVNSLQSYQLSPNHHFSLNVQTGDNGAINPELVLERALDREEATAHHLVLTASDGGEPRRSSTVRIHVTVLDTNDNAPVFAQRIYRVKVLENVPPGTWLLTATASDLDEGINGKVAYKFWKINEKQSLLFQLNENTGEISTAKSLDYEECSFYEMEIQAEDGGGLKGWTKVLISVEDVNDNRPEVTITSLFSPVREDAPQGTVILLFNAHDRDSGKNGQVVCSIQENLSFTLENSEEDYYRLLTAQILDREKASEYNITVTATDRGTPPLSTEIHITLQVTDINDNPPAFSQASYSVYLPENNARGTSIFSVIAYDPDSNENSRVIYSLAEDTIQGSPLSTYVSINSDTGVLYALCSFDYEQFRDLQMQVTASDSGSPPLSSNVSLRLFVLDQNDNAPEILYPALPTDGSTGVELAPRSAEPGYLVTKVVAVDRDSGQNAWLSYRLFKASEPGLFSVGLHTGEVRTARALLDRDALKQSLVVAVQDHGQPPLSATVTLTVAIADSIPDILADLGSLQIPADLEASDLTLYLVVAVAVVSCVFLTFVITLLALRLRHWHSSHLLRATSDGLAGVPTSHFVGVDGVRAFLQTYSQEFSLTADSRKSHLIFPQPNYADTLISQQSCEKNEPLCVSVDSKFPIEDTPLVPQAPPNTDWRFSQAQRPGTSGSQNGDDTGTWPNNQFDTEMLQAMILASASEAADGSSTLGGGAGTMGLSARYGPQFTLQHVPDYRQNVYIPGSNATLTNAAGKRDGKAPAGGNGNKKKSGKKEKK"},
  "source": "paper PMC7105466",
  "key": {"[1]": {"molecular_target": "β-catenin (pHis-CMV4-hβ-catenin), expressed in 293T cells (human) (UniProt P35222)", "test": "co-IP; exogenous co-IP in 293T cells; RIPA lysates precipitated with the indicated antibodies on protein A/G beads overnight, western blot; both orientations"}, "[2]": {"molecular_target": "PCDHGA9 (3×Flag-hPCDHGA9), expressed in 293T cells (human) (UniProt Q9Y5G4)", "test": "co-IP; exogenous co-IP in 293T cells; RIPA lysates precipitated with the indicated antibodies on protein A/G beads overnight, western blot; both orientations"}, "[3]": {"molecular_target": "PCDHGA9, ectopically expressed in SGC-7901 cells (SGC-7901-PCDHGA9) (human) (UniProt Q9Y5G4)", "test": "co-IP; immunoprecipitation of β-catenin with PCDHGA9 from PCDHGA9-overexpressing SGC-7901 and negative control cells, western blot; cells with or without 10 ng/ml TGF-β1 for 48 h"}, "[4]": {"molecular_target": "PCDHGA9, endogenous in SGC-7901 negative control cells (human (endogenous in SGC-7901)) (UniProt Q9Y5G4)", "test": "co-IP; immunoprecipitation of β-catenin with PCDHGA9 from PCDHGA9-overexpressing SGC-7901 and negative control cells, western blot; cells with or without 10 ng/ml TGF-β1 for 48 h"}},
  "note": "No constants are given. Whether binding was seen depends on the method and setting. Binding seen in cells or lysates may run through a third protein. Some binding calls cover weakened binding; strength is not graded here.",
  "data": [
    {"substance": "PCDHGA9 (3×Flag-hPCDHGA9), expressed in 293T cells (from UniProt Q9Y5G4 29-932)", "values": [
      {"measurement": "binding", "setting": "[1]", "result": "binds"}
    ]},
    {"substance": "β-catenin (pHis-CMV4-hβ-catenin), expressed in 293T cells (from UniProt P35222 1-781)", "values": [
      {"measurement": "binding", "setting": "[2]", "result": "binds"}
    ]},
    {"substance": "β-catenin, endogenous in SGC-7901 cells (from UniProt P35222 1-781)", "values": [
      {"measurement": "binding", "setting": "[3]", "result": "binds"},
      {"measurement": "binding", "setting": "[4]", "result": "binds"}
    ]}
  ]
}
